Source: publication doi:10.1101/093054 (bioRxiv, 2016)

Target: T1, ZYG-9::mCherry (C. elegans) (UniProt G5EEM5)
T1 sequence: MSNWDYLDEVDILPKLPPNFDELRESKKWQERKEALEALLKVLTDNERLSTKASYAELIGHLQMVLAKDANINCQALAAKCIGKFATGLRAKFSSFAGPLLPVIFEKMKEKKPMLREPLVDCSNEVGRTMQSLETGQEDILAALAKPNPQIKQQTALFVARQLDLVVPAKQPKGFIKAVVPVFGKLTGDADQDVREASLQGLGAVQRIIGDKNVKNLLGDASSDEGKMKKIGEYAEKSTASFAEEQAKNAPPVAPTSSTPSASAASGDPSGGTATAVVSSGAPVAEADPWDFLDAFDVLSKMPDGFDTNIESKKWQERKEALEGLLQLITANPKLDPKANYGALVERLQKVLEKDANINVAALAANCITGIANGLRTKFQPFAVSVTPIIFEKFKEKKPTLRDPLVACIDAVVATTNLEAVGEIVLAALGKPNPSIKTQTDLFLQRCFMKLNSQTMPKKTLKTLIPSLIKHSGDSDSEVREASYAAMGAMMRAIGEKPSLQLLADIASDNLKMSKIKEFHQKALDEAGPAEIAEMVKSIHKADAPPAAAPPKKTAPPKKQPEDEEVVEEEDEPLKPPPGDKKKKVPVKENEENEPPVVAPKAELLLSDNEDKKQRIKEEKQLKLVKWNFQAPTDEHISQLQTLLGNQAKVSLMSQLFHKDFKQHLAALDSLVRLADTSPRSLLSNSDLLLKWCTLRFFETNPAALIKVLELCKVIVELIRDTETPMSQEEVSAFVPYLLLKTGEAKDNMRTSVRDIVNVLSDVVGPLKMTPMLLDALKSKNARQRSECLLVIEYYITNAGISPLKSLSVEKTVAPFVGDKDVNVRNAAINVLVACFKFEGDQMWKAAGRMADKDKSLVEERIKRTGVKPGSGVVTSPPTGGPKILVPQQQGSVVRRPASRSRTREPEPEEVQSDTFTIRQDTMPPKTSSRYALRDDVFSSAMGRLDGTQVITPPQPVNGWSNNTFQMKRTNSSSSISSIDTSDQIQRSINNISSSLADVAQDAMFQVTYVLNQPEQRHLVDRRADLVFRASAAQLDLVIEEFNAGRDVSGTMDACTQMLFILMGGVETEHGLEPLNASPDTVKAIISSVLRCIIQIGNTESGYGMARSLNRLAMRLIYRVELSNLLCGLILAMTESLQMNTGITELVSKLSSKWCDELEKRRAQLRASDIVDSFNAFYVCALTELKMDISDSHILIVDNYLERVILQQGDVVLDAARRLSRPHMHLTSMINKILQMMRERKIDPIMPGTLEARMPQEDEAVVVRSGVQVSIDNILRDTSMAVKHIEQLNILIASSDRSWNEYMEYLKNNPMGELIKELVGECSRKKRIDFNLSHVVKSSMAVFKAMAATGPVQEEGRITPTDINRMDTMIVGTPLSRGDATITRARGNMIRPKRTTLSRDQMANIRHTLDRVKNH
Experiment: fluorescence microscopy of aggregates

**Q.** For TPXL-1::GFP (C. elegans), which binding is on record?
**A.** binds

Results are given in words; binding and its absence hold for the method and conditions named. A result given as binding can be weak or reduced; the word gives no strength.
